Data: PubChem BioAssay AID504834 (National Center for Advancing Translational Sciences (NCATS), 2011)
Values joined by “and” are separate entries in the source; they are usually repeats but may differ in a detail not shown here. Equal values may be shown once. The campaign covered roughly 320,000 compounds. About 22,000 (6.9%) were called active. The inconclusive results got no clear call from the source; some entries with a clear call stand among them for comparison. Calls come from the whole dose curve; as a rule, active = well fitted inhibition curve with a large enough effect; inconclusive = small, poorly fitted or top-dose-only effect, or another doubt; inactive = no such curve, though single readings can be large or run the other way. Where the call is inconclusive, the potency comes from a doubtful curve fit.

test: Primary qHTS for delayed death inhibitors of the malarial parasite plastid, 96 hour incubation; conditions: P. falciparum luciferase reporter growth; series mostly up to 28.7 µM
Method in brief: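 Parasite growth measured via integrated firefly luciferase reporter in P. falciparum. Infected erythrocytes at 2% hematocrit, 0.05% parasitemia final were treated 96 hours at 37 C under 5% CO2, and luminescence was read.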
% is set by controls: 0 for no effect and ±100 for the full control effect; potency is the fitted concentration of half-maximal effect.

| Compound | Potency | activity change, negative = inhibition |
| --- | --- | --- |
| Cc1cc(C)cc(NC(=S)NCc2ccc3[nH]c4c(c3c2)CCCC4)c1 | inconclusive: 9.28 µM [inhibitor, partial curve] |  |
| COc1ccc(CCN(C)C(=O)c2ccc(C)c(S(=O)(=O)N3CCCCC3)c2)cc1OC | inconclusive: 10.4 µM [inhibitor, single point] |  |
| O=C(CN1CCCC1)Nc1ccccc1Cl | inactive |  |
| CC1=NN(c2ccc(S(=O)(=O)O)cc2C)C(=O)C1 | inactive |  |
| CC(=O)OC(COc1ccccc1)Cn1cnc2ccccc21 (stereo not drawn) | inactive |  |
| CCC(=O)c1ccc(OCc2ccc(C#N)cc2)cc1 | inactive |  |
| CC1CC(C)(C)NC(=S)N1CCCC(=O)NCc1ccccc1 (stereo not drawn) | inconclusive: 10.4 µM [inhibitor, single point] |  |
| COc1ccc(NC(=O)CCCN2C(=O)/C(=C\c3ccco3)SC2=S)cc1 | active: 5.22 µM |  |
| Cc1ccc(Nc2nc3ccccc3n3cnnc23)cc1Cl | inconclusive: 16.5 µM [inhibitor, single point] |  |
| CC1=C(C(=O)Nc2ccccc2)C2(CCCCC2)C(C#N)=C(S)N1 | active: 10.4 µM |  |
| CCOc1ccc(S(=O)(=O)N2CCC(C(=O)NCCc3ccc(OC)c(OC)c3)CC2)cc1 | inconclusive: 10.4 µM [inhibitor, partial curve] |  |
| CCN1CCN(Cc2ccc(NC(=O)c3ccc(C)c(NC(=O)c4ccnnc4)c3)cc2C(F)(F)F)CC1 | inconclusive: 4.65 µM [inhibitor, single point] |  |
| Fc1ccc2[nH]c3c(N4CCc5ccccc5C4)ncnc3c2c1 | active: 1.85 µM |  |
| Cc1ccc(C)c(C(=O)Cn2c(NCCO)nc3ccccc32)c1 | inactive |  |
| Cc1sc2nc(COC(=O)c3cccc(S(=O)(=O)N(C)c4ccccc4)c3)[nH]c(=O)c2c1C | inconclusive: 18.5 µM [inhibitor, single point] |  |
| CCC(=O)Nc1ccccc1Nc1cc(C#N)c(C#N)cc1[N+](=O)[O-] | inconclusive: 8.28 µM [inhibitor, partial curve, poor fit] |  |
| O=C(CCC(=O)N1CCN(S(=O)(=O)c2ccccc2Cl)CC1)c1ccccc1 | inconclusive: 11.7 µM [inhibitor, single point] |  |
| O=C(O)C1C2C=CC(C2)C1C(=O)Nc1cccc(C(F)(F)F)c1 (stereo not drawn) | inactive |  |
| COc1ccc(C(=O)Nc2cnc3sc(C)nn3c2=O)cc1 | inconclusive: 18.5 µM [inhibitor, single point] |  |
| Cc1ccc(NC(=O)Cn2c(=O)cnc3ccccc32)cc1S(=O)(=O)N1CCOCC1 | inconclusive: 10.4 µM [inhibitor, single point] |  |
| O=c1[nH]nc(N2CCOCC2)c(=O)[nH]1 | inactive |  |
| CCN(CC)CC(=O)Nc1ccc([N+](=O)[O-])cc1 | inactive |  |
| c1cncc(C2Nc3cccc4cccc(c34)N2)c1 | inconclusive: 18.5 µM [inhibitor, single point] and inconclusive: 9.28 µM [inhibitor, single point] |  |
| Cc1cc(C)nc(OC(=O)c2c(Cl)cc(Cl)cc2Cl)n1 | inactive |  |
| O=C1c2cccc3cccc(c23)C(=O)N1CCCc1n[nH]c(=S)n1-c1ccccc1 | inactive |  |

| Compound | Potency | activity change, negative = inhibition |
| --- | --- | --- |
| CCS(=O)(=O)c1ccc2oc(Nc3cc(C)cc(C)c3)nc2c1 | inconclusive: 0.0294 µM [inhibitor, full curve, poor fit] |  |
| O=C(O)CC1S/C(=N/N=C/C2CC=CCC2)NC1=O (stereo not drawn) | active: 5.86 µM |  |
| COc1ccccc1NC(=O)C(C)N1CCN(C/C=C/c2ccccc2)CC1 (stereo not drawn) | inactive |  |
| CCC(=O)N1c2ccc(S(=O)(=O)NC3CCCCC3)cc2CC1C (stereo not drawn) | active: 10.4 µM |  |
| COc1cc(/C=C/C(=O)/C=C(O)/C=C/c2ccc(O)c(OC)c2)ccc1O | inconclusive: 19 µM [inhibitor, single point] |  |
| COc1ccc2c(c1)C(NS(=O)(=O)OCC(Cl)(Cl)Cl)CCC2 (stereo not drawn) | inactive |  |
| CC(=O)COc1ccc2c(c1C)O/C(=C\c1ccco1)C2=O | inactive |  |
| CC(C)C(NS(=O)(=O)c1cccs1)C(=O)Nc1nc(C(C)(C)C)cs1 (stereo not drawn) | active: 13.1 µM |  |
| COCCN(CC(=O)Nc1cccc(C)c1C)C(=O)c1cc(S(=O)(=O)N2CCCC2)ccc1C | inconclusive: 9.28 µM [inhibitor, partial curve] |  |
| CC(=O)N(CN1C(=O)C2C3C=CC(C3)C2C1=O)c1cccc(Cl)c1 (stereo not drawn) | inconclusive: 0.0657 µM [inhibitor, full curve, poor fit] |  |
| Cc1cc(=O)oc2cc(OCC(=O)NCCCN3CCCC3=O)ccc12 | inactive |  |
| CCCCCCCC1=CC2=CC(=O)C(C)(OC(C)=O)C(=O)C2=CN1CCc1ccccc1 (stereo not drawn) | inconclusive: 11.7 µM [inhibitor, single point] |  |
| COc1ccc(OC)c(CCNC(=O)c2nn(C)c3c2CS(=O)(=O)c2ccccc2-3)c1 | inactive |  |
| O=C(CSc1ccc(Cl)cc1)NC(=O)NC1CCCC1 | inactive |  |
| CC(=O)c1sc(N/N=C2\CC3CCC2(C)C3(C)C)nc1C (stereo not drawn) | inactive |  |
| Cc1cccc(NC(=O)Nc2cnccn2)c1 |  | inactive: -31.9% [at 1.15 µM] |
| CC(=O)Oc1cccc(/C=C2\Sc3ccccc3C2=O)c1 | inactive |  |
| COc1ccc(/C=C(/NC(=O)c2ccccc2)C(=O)N2CCCCC2)cc1OC | inconclusive: 18.5 µM [inhibitor, single point] |  |
| CCOC(=S)SCC(=O)Nc1nc(C)c(C)s1 | inactive |  |
| Cc1[nH]c(-c2ccccn2)nc(=S)c1Cl | inconclusive: 1.47 µM [inhibitor, full curve] |  |
| CCC(C)(C(=O)Nc1ccc2c(c1)OCCO2)N(C(C)=O)c1ccc(C(N)=O)cc1 (stereo not drawn) | inconclusive: 18.5 µM [inhibitor, single point] |  |
| CCOc1ccc(NC(=O)/C(C#N)=C/c2cn(CC(=O)O)c3ccccc23)cc1 | inconclusive: 18.5 µM [inhibitor, single point] |  |
| COc1ccc(C(=O)Nc2sc3c(c2C#N)CCN(C(C)=O)C3)cc1 | inactive |  |
| Cc1ccc(NC(=O)C2CCCN(C(=O)NCc3ccccc3)C2)c(C)c1 (stereo not drawn) | inconclusive: 18.5 µM [inhibitor, partial curve, poor fit] |  |
| Cc1sc2nc(C3CC3)nc(NCCNS(C)(=O)=O)c2c1C | inactive |  |

| Compound | Potency | activity change, negative = inhibition |
| --- | --- | --- |
| O=C(NCc1ccc(Cl)cc1)c1cc(=O)[nH]c2ccccc12 | inactive |  |
| CCn1c(NCc2ccccc2NS(=O)(=O)c2ccc(C)cc2)nc2ccccc21 | inactive |  |
| Cc1cc(C)c2oc(C(=O)NCCc3ccc(S(N)(=O)=O)cc3)cc(=O)c2c1 | inconclusive: 13.1 µM [inhibitor, single point] |  |
| CCc1cc(=O)oc2cc(C)cc(OC(C)C(=O)NCCCN3CCCC3=O)c12 (stereo not drawn) | inconclusive: 9.28 µM [inhibitor, partial curve] |  |
| Cc1ccccc1NC(=S)N/N=C/C(C)c1ccccc1 (stereo not drawn) | inconclusive: 18.5 µM [inhibitor, single point] |  |
| O=C1NC(=O)/C(=C\c2ccc(Br)o2)S1 | inactive |  |
| COC(=O)c1c(C)c(C)nc(N)c1C#N | inconclusive: 0.131 µM [inhibitor, partial curve, poor fit] |  |
| COc1ccc(C(C(=O)NCC2CCCO2)N(C(=O)CNC(=O)c2cccs2)c2ccc(C(C)=O)cc2)cc1OC (stereo not drawn) | inconclusive: 13.1 µM [inhibitor, partial curve] |  |
| O=C(c1ccccc1)N1N=C(c2ccccc2O)CC1c1ccc(Br)cc1 (stereo not drawn) | inconclusive: 11.7 µM [inhibitor, single point] |  |
| CC(C)C(NC(=O)OCc1ccccc1)C(=O)O (stereo not drawn) | inconclusive: 0.104 µM [inhibitor, full curve, poor fit] |  |
| Nc1c(C(=O)NCCc2ccc(Cl)cc2)sc2ccc(S(=O)(=O)N3CCCCC3)cc12 | inconclusive: 10.4 µM [inhibitor, partial curve] |  |
| COc1cccc(C(=O)/C=C/Nc2cccc(O)c2)c1 | inactive |  |
| C[C@]12CCC(=O)C=C1CC[C@@H]1[C@@H]2CC[C@@]2(C)[C@H]1CC[C@]2(O)C(=O)CO | inconclusive: 10.7 µM [inhibitor, partial curve] |  |
| Cc1sc2ncnc(N/N=C/c3ccc(O)cc3)c2c1C | inconclusive: 18.5 µM [inhibitor, single point] |  |
| Cc1ccnc(NC(=O)c2cc(F)c(F)cc2Cl)n1 | inactive |  |
| CCn1c(-c2ccccc2Cl)nn(CC(=O)Nc2ccccc2C)c1=S | inconclusive: 18.5 µM [inhibitor, single point] |  |
| CCOC(=O)c1sc(N2C(=O)C(O)=C(C(=O)c3ccco3)C2c2ccc(C)o2)nc1C (stereo not drawn) | inconclusive: 7.38 µM [inhibitor, partial curve, poor fit] |  |
| CCCCN(C)C(=O)C1CCCN(S(=O)(=O)c2ccc3c(c2)CC(C)N3C(=O)C2CC2)C1 (stereo not drawn) | active: 13.1 µM |  |
| CCOc1cc2c(cc1OCC)-n1cccc1C(c1ccccc1F)NC2 (stereo not drawn) | inconclusive: 2.94 µM [inhibitor, full curve] |  |
| Cc1ccc(N(C)C(=O)N2CCN(S(=O)(=O)c3ccc(C)c(C)c3)CC2)cc1 | inconclusive: 18.5 µM [inhibitor, single point] |  |
| O=C(c1cc(-c2cccs2)nc2ccccc12)N1CCN(c2ccccc2O)CC1 | inconclusive: 18.5 µM [inhibitor, single point] |  |
| Cc1ccc(-c2c(C(=O)N/N=C/c3ccco3)nnn2-c2nonc2N)cc1 | inconclusive: 3.7 µM [inhibitor, partial curve] |  |
| O=C(Nc1cccc(S(=O)(=O)NC2=NCCCCC2)c1)c1cc(-c2ccccc2Cl)nc2ccccc12 | inconclusive: 0.185 µM [inhibitor, full curve] |  |

3 structures already listed, ordered by heavy-atom count, rising:

| Compound | Potency | activity change, negative = inhibition |
| --- | --- | --- |
| COC(=O)c1c(C)c(C)nc(N)c1C#N | inconclusive: 0.131 µM [inhibitor, partial curve, poor fit] |  |
| CC(C)C(NC(=O)OCc1ccccc1)C(=O)O (stereo not drawn) | inconclusive: 0.104 µM [inhibitor, full curve, poor fit] |  |
| CCn1c(-c2ccccc2Cl)nn(CC(=O)Nc2ccccc2C)c1=S | inconclusive: 18.5 µM [inhibitor, single point] |  |
